For two molecules, binding results are on record in PMC10556042.

Protein sequences, listed by entry. Tags and fused reporters are not part of them.
UniProt P62068: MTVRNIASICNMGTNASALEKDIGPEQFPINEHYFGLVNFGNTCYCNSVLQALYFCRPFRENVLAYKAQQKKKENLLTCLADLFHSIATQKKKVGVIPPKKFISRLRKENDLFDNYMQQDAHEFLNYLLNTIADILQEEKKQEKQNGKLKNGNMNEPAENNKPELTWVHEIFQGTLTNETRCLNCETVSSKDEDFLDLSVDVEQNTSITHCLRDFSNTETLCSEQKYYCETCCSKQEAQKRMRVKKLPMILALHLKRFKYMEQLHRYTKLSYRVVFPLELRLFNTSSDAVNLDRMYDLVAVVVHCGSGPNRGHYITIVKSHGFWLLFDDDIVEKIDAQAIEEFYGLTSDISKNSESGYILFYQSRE
UniProt Q8TAF3: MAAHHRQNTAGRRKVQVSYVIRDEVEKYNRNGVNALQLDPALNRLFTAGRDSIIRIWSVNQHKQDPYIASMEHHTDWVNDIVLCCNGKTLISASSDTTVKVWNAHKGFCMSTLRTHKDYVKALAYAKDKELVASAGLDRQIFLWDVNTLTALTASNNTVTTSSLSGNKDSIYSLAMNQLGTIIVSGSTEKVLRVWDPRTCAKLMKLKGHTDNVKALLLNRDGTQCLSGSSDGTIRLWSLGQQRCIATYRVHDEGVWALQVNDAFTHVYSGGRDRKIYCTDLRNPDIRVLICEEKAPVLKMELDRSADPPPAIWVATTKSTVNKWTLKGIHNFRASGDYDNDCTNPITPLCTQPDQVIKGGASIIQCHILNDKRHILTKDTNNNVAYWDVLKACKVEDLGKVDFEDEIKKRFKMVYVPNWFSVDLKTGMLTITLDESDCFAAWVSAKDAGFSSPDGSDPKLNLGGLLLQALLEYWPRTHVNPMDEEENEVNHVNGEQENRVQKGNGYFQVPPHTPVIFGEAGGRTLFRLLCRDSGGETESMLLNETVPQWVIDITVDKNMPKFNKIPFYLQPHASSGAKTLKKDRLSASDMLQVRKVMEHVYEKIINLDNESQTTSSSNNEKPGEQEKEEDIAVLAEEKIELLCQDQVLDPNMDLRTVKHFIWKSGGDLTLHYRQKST

These are yes or no findings as the source states them, for the method shown. Some binding calls cover weakened binding; strength is not graded here.

In this test the target is USP46, endogenous (human (endogenous in HEK293)) (UniProt P62068). Description: SEC; HEK293 cells with or without Wnt3a, detergent-free NDLB lysates, 100,000 x g supernatant on Superdex 200 10/300; fractions TCA-precipitated and immunoblotted; peak broadened with Wnt3a. For orientation: Size exclusion chromatography separates by hydrodynamic size, large species first.

As for “UAF1, endogenous (from UniProt Q8TAF3 1-677)”, the binding entry was “binds”.

B1: WDR20, endogenous (protein, UniProt Q8TBZ3 1-569)
chain: MATEGGGKEMNEIKTQFTTREGLYKLLPHSEYSRPNRVPFNSQGSNPVRVSFVNLNDQSGNGDRLCFNVGRELYFYIYKGVRKAADLSKPIDKRIYKGTQPTCHDFNHLTATAESVSLLVGFSAGQVQLIDPIKKETSKLFNEERLIDKSRVTCVKWVPGSESLFLVAHSSGNMYLYNVEHTCGTTAPHYQLLKQGESFAVHTCKSKSTRNPLLKWTVGEGALNEFAFSPDGKFLACVSQDGFLRVFNFDSVELHGTMKSYFGGLLCVCWSPDGKYIVTGGEDDLVTVWSFVDCRVIARGHGHKSWVSVVAFDPYTTSVEEGDPMEFSGSDEDFQDLLHFGRDRANSTQSRLSKRNSTDSRPVSVTYRFGSVGQDTQLCLWDLTEDILFPHQPLSRARTHTNVMNATSPPAGSNGNSVTTPGNSVPPPLPRSNSLPHSAVSNAGSKSSVMDGAIASGVSKFATLSLHDRKERHHEKDHKRNHSMGHISSKSSDKLNLVTKTKTDPAKTLGTPLCPRMEDVPLLEPLICKKIAHERLTVLIFLEDCIVTACQEGFICTWGRPGKVVSFNP
For the molecule B1, the binding result is “binds”.
